Test results published in PubChem BioAssay AID192 (DTP/NCI, 2004).
The list shows only some results of the screen, not a fair sample: it gathers tests that were run many times, whatever their T/C, doses with no T/C, and many T/C values between a quarter and a half above the control. Further doses and runs are listed elsewhere. T/C: endpoint of the treated group in % of that of the vehicle group. Some entries give survivors of the animals treated and no T/C: the source holds a T/C of zero for them, seemingly a mark for toxic or unscored doses. Some doses without a T/C left all or most animals alive at the check, yet need not have been tolerated: survival well below the control is almost never listed, so the zero probably covers shortened survival too. Counts of survivors are from the toxicity check (mostly the fifth day) where no day follows; animals may have died later. Schedule codes are those of the source, taken here to give the interval after Q, in days (D) or hours (H), and the number of doses after X. Some entries were tested several times; the values are given in rising order. Where survival is the endpoint, the PubChem record calls one and a half times the control and up active, and a quarter to a half above the control has no call in these data; cut-offs in other NCI protocols can differ. Bridge positions count the residues as written; N and C are the ends. Square brackets hold non-standard residues; d marks the D form. Peptide text beside a SMILES is read from it. I, II: the chains in the order shown. * marks the point of attachment. Quinoxaline2carbonyl = O=C(c1cnc2ccccc2n1)*; NMeV = CN[CH](C(=O)O)C(C)C; NMeC = CN[CH](CS)C(=O)O

System: BDF1 mice, B16 melanoma ip, median survival T/C
Experiment: NCI In Vivo Anticancer Drug Screen. Data for tumor model B16 Melanoma (intraperitoneal) in B6D2F1 (BDF1) mice
Conditions: T/C endpoint: median survival time, higher T/C = longer survival
In short: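 Tumor-bearing mice received test compound or vehicle. Survival or tumor size was then measured in both groups. The treated-group figure was divided by the control-group figure.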

In the case of `CCOc1nc(N)c(C(N)=O)cc1C#N`, the survivor count (dose: 66.0 mg/kg/injection, schedule: Q01DX009 (ip), vehicle: saline with Tween-80) is reported as 0 of 10, the survivor count (dose: 100.0 mg/kg/injection, schedule: Q01DX009 (ip), vehicle: saline with Tween-80) is reported as 0 of 10 and the survivor count (dose: 150.0 mg/kg/injection, schedule: Q01DX009 (ip), vehicle: saline with Tween-80) is reported as 0 of 10.

For `CC1=C(/C=C/C(C)=C/C=C/C(C)=C/C=O)C(C)(C)CCC1`, the survivor count (dose: 128.0 mg/kg/injection, schedule: Q01DX005 (ip), vehicle: DMSO) was 10 of 10.

`CCOC(=O)C(CC(C)C)NC(=O)C(Cc1ccc(N(CCCl)CCCl)cc1)NC(C)=O` (centres undefined) was tested, and the T/C (dose: 16.0 mg/kg/injection, schedule: Q01DX009 (ip), vehicle: saline with Tween-80) was 135 % of control, the survivor count (dose: 32.0 mg/kg/injection, schedule: Q01DX009 (ip), vehicle: saline with Tween-80) was 10 of 10 and the T/C (dose: 32.0 mg/kg/injection, schedule: Q01DX009 (ip), vehicle: saline) was 138 % of control. For the same compound, the survivor count (dose: 64.0 mg/kg/injection, schedule: Q01DX009 (ip), vehicle: saline with Tween-80) was 5 of 10, the T/C (dose: 64.0 mg/kg/injection, schedule: Q01DX009 (ip), vehicle: saline) was 135 % of control and the survivor count (dose: 128.0 mg/kg/injection, schedule: Q01DX009 (ip), vehicle: saline) was 6 of 10. The survivor count (dose: 256.0 mg/kg/injection, schedule: Q01DX009 (ip), vehicle: saline) was 3 of 10.

`CC[CH2][Pb]([CH2]CC)([CH2]CC)[O]C(=O)C(F)(F)F` was tested, and the survivor count (dose: 6.25 mg/kg/injection, schedule: Q01DX009 (ip), vehicle: saline with Tween-80) was 9 of 10, the survivor count (dose: 12.5 mg/kg/injection, schedule: Q01DX009 (ip), vehicle: saline with Tween-80) was 6 of 10 and the survivor count (dose: 25.0 mg/kg/injection, schedule: Q01DX009 (ip), vehicle: saline with Tween-80) was 0 of 10.

With `COC1CC(C)C(OC)C2=CC(=O)C=C(NC(=O)/C(C)=C/C=C\C(C)C(OC(N)=O)/C(C)=C\C(C)C1OC)C2=O` (centres undefined) the survivor count (dose: 20.0 mg/kg/injection, schedule: Q01DX009 (ip), vehicle: saline + alcohol) was 10 of 10.

With `CCC1(CC)OC2=C(CC(C#N)(C#N)C(C#N)(C#N)C2)O1` the survivor count (dose: 25.0 mg/kg/injection, schedule: Q04DX003 (ip), vehicle: Klucel (hydroxypropylcellulose) (HPC)) was 10 of 10, the survivor count (dose: 50.0 mg/kg/injection, schedule: Q04DX003 (ip), vehicle: Klucel (hydroxypropylcellulose) (HPC)) was 7 of 10 and the survivor count (dose: 100.0 mg/kg/injection, schedule: Q04DX003 (ip), vehicle: Klucel (hydroxypropylcellulose) (HPC)) was 8 of 10 and 9 of 10. For the same compound, the survivor count (dose: 200.0 mg/kg/injection, schedule: Q04DX003 (ip), vehicle: Klucel (hydroxypropylcellulose) (HPC)) was 8 of 10 and the survivor count (dose: 400.0 mg/kg/injection, schedule: Q04DX003 (ip), vehicle: Klucel (hydroxypropylcellulose) (HPC)) was 7 of 10.

`CC1NC(=O)C(NC(=O)c2cnc3ccccc3n2)COC(=O)C(C(C)C)N(C)C(=O)C2CSSCC(C(=O)N(C)C(C(C)C)C(=O)OCC(NC(=O)c3cnc4ccccc4n3)C(=O)NC(C)C(=O)N2C)N(C)C1=O` (centres undefined) (I: Quinoxaline2carbonyl-SA[NMeC][NMeV] / II: Quinoxaline2carbonyl-SA[NMeC][NMeV]; ester I:1-II:C, I:C-II:1; disulfide I:3-II:3; configuration not given here) was tested, and the T/C (dose: 11.2 micrograms/kg/injection, schedule: Q01DX009 (ip), vehicle: Klucel (hydroxypropylcellulose) (HPC)) was 140 % of control, the T/C (dose: 12.0 micrograms/kg/injection, schedule: Q01DX009 (ip), vehicle: Klucel (hydroxypropylcellulose) (HPC)) was 130 % of control and the survivor count (dose: 90.0 micrograms/kg/injection, schedule: Q01DX009 (ip), vehicle: Klucel (hydroxypropylcellulose) (HPC)) was 10 of 10. For the same compound, the survivor count (dose: 180.0 micrograms/kg/injection, schedule: Q01DX009 (ip), vehicle: Klucel (hydroxypropylcellulose) (HPC)) was 9 of 10.
